These are yes or no findings as the source states them, for the method shown. Tags and fused reporters may be left off the sequences shown. Each block holds one binder with its values, some of them ahead of it.
Key:
[1] = molecular target: adenine nucleotide translocase 1 (ANT1), recombinant His6-tagged (bovine) (UniProt P02722); test: condition: only with 2.5% added cardiolipin in the liposomes; semi-native SDS-PAGE; single purified protein reconstituted in liposomes of EYPC + 2.5 mol% added cardiolipin; 0.1% SDS in gel and running buffer, samples not heated; Coomassie staining; both purified
[2] = molecular target: adenine nucleotide translocase 1 (ANT1), recombinant His6-tagged (bovine) (UniProt P02722); test: condition: only in OG detergent, before reconstitution into liposomes; semi-native SDS-PAGE; single purified protein in OG detergent before reconstitution; no SDS in loading buffer, 0.1% SDS in gel and running buffer, samples not heated; Coomassie staining; both purified
[3] = molecular target: uncoupling protein 2 (UCP2), recombinant His6-tagged (human) (UniProt P55851); test: as above
[4] = molecular target: uncoupling protein 4 (UCP4), recombinant His6-tagged (human) (UniProt O95847); test: as above

binding [1]: no binding | binding [2]: no binding
B1: adenine nucleotide translocase 1 (ANT1), recombinant His6-tagged (natural protein, bovine)
chain: SDQALSFLKDFLAGGVAAAISKTAVAPIERVKLLLQVQHASKQISAEKQYKGIIDCVVRIPKEQGFLSFWRGNLANVIRYFPTQALNFAFKDKYKQIFLGGVDRHKQFWRYFAGNLASGGAAGATSLCFVYPLDFARTRLAADVGKGAAQREFTGLGNCITKIFKSDGLRGLYQGFNVSVQGIIIYRAAYFGVYDTAKGMLPDPKNVHIIVSWMIAQTVTAVAGLVSYPFDTVRRRMMMQSGRKGADIMYTGTVDCWRKIAKDEGPKAFFKGAWSNVLRGMGGAFVLVLYDEIKKFV
notes: bovine ANT1, UniProt P02722; Cloned in pET26b(+); also called ADP/ATP carrier; AAC; source: E. coli BL21 (DE3) or BL21 CodonPlus (DE3)-RIPL, extracted from bacterial membranes, purified (Ni-NTA IMAC, 1% OG); not shown: pelB leader, N-terminal, cleaved; His6, N-terminal, kept

binding [3]: no binding
B2: uncoupling protein 2 (UCP2), recombinant His6-tagged (natural protein, human, UniProt P55851 1-309, looked up)
chain: MVGFKATDVPPTATVKFLGAGTAACIADLITFPLDTAKVRLQIQGESQGPVRATASAQYRGVMGTILTMVRTEGPRSLYNGLVAGLQRQMSFASVRIGLYDSVKQFYTKGSEHASIGSRLLAGSTTGALAVAVAQPTDVVKVRFQAQARAGGGRRYQSTVNAYKTIAREEGFRGLWKGTSPNVARNAIVNCAELVTYDLIKDALLKANLMTDDLPCHFTSAFGAGFCTTVIASPVDVVKTRYMNSALGQYSSAGHCALTMLQKEGPRAFYKGFMPSFLRLGSWNVVMFVTYEQLKRALMAACTSREAPF
notes: human UCP2, UniProt P55851; Cloned in pET26b(+); purified as a monomer in OG, tetramer after reconstitution in liposomes; source: E. coli BL21 (DE3) or BL21 CodonPlus (DE3)-RIPL, extracted from bacterial membranes, purified (Ni-NTA IMAC, 1% OG); not shown: pelB leader, N-terminal, cleaved; His6, N-terminal, kept

binding [4]: no binding
B3: uncoupling protein 4 (UCP4), recombinant His6-tagged (natural protein, human, UniProt O95847 1-323, looked up)
chain: MSVPEEEERLLPLTQRWPRASKFLLSGCAATVAELATFPLDLTKTRLQMQGEAALARLGDGARESAPYRGMVRTALGIIEEEGFLKLWQGVTPAIYRHVVYSGGRMVTYEHLREVVFGKSEDEHYPLWKSVIGGMMAGVIGQFLANPTDLVKVQMQMEGKRKLEGKPLRFRGVHHAFAKILAEGGIRGLWAGWVPNIQRAALVNMGDLTTYDTVKHYLVLNTPLEDNIMTHGLSSLCSGLVASILGTPADVIKSRIMNQPRDKQGRGLLYKSSTDCLIQAVQGEGFMSLYKGFLPSWLRMTPWSMVFWLTYEKIREMSGVSPF
notes: human UCP4, UniProt O95847; Cloned in pET26b(+); purified as a monomer in OG, tetramer after reconstitution in liposomes; source: E. coli BL21 (DE3) or BL21 CodonPlus (DE3)-RIPL, extracted from bacterial membranes, purified (Ni-NTA IMAC, 1% OG); not shown: pelB leader, N-terminal, cleaved; His6, N-terminal, kept
